The exact form of at least one protein or probe is not confirmed. For some assays here: A negative result means that nothing was seen under these conditions. For some assays here: At least one verdict rests on a figure or table, not on a statement of the authors.
Experiments:
[1] = system: ZmbHLH124 T-ORG (Zea mays (drought-tolerant line PH4CV allele)); assay: competition with a labelled probe; conditions: excess unlabelled competitor vs labelled N1; LightShift Chemiluminescent EMSA Kit protocol (binding buffer, pH, temperature not stated); probes annealed in 10 mM Tris-HCl pH 7.5, 1 mM EDTA, 100 mM NaCl; recombinant protein; label: unlabelled
[2] = system: ZmbHLH124 T-ORG (Zea mays (drought-tolerant line PH4CV allele)); assay: EMSA; conditions: LightShift Chemiluminescent EMSA Kit protocol (binding buffer, pH, temperature not stated); probes annealed in 10 mM Tris-HCl pH 7.5, 1 mM EDTA, 100 mM NaCl; recombinant protein

“TCGCTCTCACTTCAATACACCACGTCCACGTGAGCCTGTTCTGTTCCACTGACACACG (double strand) [pZmDREB2A P1 cold competitor]”: binds [1].
“TCGCTCTCACTTCAATACACCACGTCCACGTGAGCCTGTTCTGTTCCACTGACACACG (double strand) [pZmDREB2A P1 probe (WT)]”: binds [2].
“TCGCTCTCACTTCAATACACCACGTCTTCGCCAGCCTGTTCTGTTCCACTGACACACG (double strand) [pZmDREB2A-mu1,2]”: binds [2].
“TCGCTCTCACTTCAATACACGGAAACCACGTGAGCCTGTTCTGTTCCACTGACACACG (double strand) [pZmDREB2A-mu2,3]”: binds [2].
“TCGCTCTCACTTCAATACACGGAAACTTGGCCAGCCTGTTCTGTTCCACTGACACACG (double strand) [pZmDREB2A-mu1,2,3]”: no binding [2].
